In patent US20070134286A1, “Methods for reducing intimal hyperplasia, smooth muscle cell proliferation and restenosis in mammals” (priority 2004, published 2007):

System: primary culture of human coronary artery smooth muscle cells
Assay: Affymetrix U133Av2 microarray gene expression
Type: cell-based
Settings: 100 nM, 30 hr; two-fold change cutoff, p<0.05; of 176 target genes
Method: Microarray: […] While the yield of total RNA was low ([…] total per sample), the RNAs were intact as judged by Agilent 2100 analysis. One μg of total RNA from each sample was used to prepare biotin-labeled cRNA target using standard Affymetrix protocols. Prepared cRNA targets were of good quality and quantity. The Affymetrix Human chip U133Av2 was used (22,000+ probe sets) and 10 μg cRNA target was applied to each array. […] Scanned images were loaded into the Rosetta Resolver 4.0 database and processed using the Resolver Affymetrix error model. Within Resolver the drug treated sample replicates (n=3) were informatically combined and ratios constructed relative to the combined control (no addition of drug) samples. The Resolver Affymetrix error model was used to develop each ratio and calculate a p-value. The Resolver error model is robust and includes reporter level, background and error values in the calculation of statistical significance. A combination of hierarchical clustering, gene ontology analysis and pathway mapping were used to assess the function of the regulated genes.

C=C1/C(=C\C=C2/CCC[C@]3(C)[C@@H]([C@H](C)CCCC(C)(C)O)CC[C@@H]23)C[C@@H](O)C[C@@H]1O [calcitriol, 1-alpha-25-dihydroxyvitamin D3]
number of genes down-regulated: 60 | number of genes up-regulated: 116

C[C@H](/C=C/[C@H](C)C(C)(C)O)[C@H]1CC[C@H]2/C(=C/C=C3C[C@@H](O)C[C@H](O)C3)CCC[C@]12C [paricalcitol, 19-nor-1α,3β,25-trihydroxy-9,10-secoergosta-5(Z); 7(E),22(E)-triene]
number of genes down-regulated: 61 | number of genes up-regulated: 115
